In the supplement of paper PMC6411743:
± gives the standard deviation of the averaged measurements. The entries are a selection whose mix differs from that of the whole data set.

The chains behind the UniProt entries cited, without tags or fusion partners. Where a name states a change or a piece, a line headed by the entry shows the natural chain unless it says otherwise.
UniProt Q8TB37: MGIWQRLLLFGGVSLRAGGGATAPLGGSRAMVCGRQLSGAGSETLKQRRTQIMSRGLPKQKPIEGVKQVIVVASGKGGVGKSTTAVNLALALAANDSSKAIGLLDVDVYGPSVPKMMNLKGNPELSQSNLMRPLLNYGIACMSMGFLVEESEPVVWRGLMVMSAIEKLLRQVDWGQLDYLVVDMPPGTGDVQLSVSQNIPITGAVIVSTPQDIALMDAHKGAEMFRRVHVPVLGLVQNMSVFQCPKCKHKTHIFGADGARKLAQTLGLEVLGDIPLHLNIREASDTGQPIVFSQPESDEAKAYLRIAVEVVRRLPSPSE
UniProt Q8NA72: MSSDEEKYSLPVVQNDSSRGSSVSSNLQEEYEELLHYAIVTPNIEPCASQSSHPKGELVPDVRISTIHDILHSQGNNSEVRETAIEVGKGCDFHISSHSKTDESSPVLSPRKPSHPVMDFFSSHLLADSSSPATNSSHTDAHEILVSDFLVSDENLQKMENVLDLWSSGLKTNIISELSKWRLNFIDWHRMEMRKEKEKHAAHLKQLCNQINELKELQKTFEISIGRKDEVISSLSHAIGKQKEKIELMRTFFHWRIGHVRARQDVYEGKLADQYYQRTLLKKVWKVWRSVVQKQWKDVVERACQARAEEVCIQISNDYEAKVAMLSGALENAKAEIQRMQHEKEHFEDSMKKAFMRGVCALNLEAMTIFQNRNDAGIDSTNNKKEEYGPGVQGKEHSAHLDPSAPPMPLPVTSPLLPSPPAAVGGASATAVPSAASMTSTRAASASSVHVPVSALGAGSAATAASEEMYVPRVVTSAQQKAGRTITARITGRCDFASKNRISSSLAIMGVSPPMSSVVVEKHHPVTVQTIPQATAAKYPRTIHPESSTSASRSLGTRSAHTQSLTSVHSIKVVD
UniProt Q8NG68: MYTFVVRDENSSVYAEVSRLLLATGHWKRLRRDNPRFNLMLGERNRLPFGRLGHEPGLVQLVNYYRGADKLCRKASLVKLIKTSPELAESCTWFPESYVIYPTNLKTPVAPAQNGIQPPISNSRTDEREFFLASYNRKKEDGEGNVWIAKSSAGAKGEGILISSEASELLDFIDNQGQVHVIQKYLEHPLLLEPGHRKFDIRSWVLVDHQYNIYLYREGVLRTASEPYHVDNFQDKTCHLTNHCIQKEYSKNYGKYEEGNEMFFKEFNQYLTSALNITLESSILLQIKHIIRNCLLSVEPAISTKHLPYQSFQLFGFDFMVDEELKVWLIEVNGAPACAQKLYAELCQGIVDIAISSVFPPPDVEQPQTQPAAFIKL
UniProt Q8IZC7: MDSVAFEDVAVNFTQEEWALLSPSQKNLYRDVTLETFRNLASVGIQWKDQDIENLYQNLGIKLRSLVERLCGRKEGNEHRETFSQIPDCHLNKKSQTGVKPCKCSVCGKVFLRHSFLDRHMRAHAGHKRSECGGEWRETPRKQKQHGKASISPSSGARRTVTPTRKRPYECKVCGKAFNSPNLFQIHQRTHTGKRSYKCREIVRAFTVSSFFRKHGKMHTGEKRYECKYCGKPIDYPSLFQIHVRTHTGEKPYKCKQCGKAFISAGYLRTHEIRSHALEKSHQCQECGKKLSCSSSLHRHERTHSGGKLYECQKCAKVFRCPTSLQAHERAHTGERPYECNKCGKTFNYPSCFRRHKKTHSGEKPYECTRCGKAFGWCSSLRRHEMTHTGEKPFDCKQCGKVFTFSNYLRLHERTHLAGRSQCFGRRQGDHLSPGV
UniProt Q8NAV1: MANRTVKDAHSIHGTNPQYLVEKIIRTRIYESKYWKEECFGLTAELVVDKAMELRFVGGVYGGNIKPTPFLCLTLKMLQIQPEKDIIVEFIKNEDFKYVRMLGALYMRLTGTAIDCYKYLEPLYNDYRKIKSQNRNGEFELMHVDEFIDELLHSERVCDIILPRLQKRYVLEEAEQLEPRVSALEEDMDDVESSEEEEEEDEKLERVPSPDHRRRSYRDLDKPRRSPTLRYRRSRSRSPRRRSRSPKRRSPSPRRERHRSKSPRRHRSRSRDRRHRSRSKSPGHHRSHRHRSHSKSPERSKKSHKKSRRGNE
UniProt Q8NCR0: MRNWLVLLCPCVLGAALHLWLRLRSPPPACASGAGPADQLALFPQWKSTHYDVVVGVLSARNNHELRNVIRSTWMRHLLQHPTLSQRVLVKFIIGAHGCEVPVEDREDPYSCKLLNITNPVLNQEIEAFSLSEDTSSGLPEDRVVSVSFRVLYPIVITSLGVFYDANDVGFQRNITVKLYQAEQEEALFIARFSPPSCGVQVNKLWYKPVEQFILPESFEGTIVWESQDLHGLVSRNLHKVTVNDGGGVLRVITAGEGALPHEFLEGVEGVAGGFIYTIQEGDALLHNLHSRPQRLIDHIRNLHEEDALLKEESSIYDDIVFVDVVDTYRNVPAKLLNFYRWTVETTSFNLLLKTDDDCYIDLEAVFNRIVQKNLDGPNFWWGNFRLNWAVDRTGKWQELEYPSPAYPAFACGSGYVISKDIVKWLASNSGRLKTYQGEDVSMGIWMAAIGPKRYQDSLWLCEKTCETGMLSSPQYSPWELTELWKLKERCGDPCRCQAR
UniProt Q8IXK2: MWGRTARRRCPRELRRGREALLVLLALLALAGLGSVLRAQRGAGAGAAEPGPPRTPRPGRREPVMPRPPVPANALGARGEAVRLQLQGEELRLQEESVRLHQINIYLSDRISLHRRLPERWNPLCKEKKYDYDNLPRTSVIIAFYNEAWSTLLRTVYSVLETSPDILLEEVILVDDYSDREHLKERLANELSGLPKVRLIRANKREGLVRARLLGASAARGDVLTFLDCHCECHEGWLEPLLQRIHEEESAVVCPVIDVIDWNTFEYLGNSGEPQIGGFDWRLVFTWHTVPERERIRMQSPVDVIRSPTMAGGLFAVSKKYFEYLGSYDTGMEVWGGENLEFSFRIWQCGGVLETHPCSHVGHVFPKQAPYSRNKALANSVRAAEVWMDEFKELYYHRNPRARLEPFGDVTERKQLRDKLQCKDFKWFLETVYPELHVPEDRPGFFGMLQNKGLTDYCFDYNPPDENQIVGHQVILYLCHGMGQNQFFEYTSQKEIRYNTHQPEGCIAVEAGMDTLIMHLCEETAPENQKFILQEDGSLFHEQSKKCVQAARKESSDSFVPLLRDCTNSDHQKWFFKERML
UniProt Q8NDX5: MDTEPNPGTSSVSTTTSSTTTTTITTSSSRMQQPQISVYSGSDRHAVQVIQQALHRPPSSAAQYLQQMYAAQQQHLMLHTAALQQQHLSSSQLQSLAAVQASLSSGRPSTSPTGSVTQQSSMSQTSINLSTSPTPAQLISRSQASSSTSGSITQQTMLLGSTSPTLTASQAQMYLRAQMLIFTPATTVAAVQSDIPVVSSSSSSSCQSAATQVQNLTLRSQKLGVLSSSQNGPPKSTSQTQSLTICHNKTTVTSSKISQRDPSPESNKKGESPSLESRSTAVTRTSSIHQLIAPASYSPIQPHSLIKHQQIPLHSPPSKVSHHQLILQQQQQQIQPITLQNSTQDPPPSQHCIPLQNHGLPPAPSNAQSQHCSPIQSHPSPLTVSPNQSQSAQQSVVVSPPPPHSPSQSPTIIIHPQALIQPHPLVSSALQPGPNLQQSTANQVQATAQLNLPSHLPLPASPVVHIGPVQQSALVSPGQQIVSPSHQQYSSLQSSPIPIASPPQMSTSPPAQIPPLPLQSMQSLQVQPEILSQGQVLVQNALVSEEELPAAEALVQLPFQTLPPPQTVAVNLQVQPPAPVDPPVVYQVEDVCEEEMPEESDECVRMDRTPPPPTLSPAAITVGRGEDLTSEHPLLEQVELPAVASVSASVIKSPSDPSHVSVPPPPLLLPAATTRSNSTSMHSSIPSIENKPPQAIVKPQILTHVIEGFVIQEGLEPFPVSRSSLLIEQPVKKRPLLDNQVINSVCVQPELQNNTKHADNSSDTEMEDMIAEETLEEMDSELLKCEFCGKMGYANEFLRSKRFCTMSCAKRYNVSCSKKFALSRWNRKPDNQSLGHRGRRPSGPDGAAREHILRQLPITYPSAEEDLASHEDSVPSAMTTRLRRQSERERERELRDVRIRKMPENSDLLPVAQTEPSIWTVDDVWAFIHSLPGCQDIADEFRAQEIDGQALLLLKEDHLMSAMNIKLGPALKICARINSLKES
UniProt Q8N5Y2: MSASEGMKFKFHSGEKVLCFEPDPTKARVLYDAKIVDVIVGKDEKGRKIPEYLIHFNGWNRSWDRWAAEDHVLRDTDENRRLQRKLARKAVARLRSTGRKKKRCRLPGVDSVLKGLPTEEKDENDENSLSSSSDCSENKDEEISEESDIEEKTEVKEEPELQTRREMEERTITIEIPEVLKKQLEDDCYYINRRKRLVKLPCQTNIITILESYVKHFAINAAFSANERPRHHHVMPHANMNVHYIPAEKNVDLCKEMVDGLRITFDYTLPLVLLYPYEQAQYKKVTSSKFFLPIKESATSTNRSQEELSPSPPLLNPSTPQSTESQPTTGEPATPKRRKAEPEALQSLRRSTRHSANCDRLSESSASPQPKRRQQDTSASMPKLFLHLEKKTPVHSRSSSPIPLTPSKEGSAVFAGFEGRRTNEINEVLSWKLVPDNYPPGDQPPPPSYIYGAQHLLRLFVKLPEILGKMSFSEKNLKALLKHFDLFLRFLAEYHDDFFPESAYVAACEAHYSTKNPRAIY
UniProt Q8N5Z0: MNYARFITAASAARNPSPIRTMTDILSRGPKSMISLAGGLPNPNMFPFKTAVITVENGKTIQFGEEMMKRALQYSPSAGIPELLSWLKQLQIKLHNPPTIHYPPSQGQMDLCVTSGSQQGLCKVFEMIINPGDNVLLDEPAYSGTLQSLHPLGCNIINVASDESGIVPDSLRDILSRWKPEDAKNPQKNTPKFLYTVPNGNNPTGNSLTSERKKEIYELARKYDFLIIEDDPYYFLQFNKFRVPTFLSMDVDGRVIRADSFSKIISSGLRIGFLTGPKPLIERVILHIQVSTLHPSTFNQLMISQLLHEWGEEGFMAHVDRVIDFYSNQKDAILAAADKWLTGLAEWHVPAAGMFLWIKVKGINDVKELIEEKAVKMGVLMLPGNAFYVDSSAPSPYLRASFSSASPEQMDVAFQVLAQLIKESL
UniProt Q8NFQ8: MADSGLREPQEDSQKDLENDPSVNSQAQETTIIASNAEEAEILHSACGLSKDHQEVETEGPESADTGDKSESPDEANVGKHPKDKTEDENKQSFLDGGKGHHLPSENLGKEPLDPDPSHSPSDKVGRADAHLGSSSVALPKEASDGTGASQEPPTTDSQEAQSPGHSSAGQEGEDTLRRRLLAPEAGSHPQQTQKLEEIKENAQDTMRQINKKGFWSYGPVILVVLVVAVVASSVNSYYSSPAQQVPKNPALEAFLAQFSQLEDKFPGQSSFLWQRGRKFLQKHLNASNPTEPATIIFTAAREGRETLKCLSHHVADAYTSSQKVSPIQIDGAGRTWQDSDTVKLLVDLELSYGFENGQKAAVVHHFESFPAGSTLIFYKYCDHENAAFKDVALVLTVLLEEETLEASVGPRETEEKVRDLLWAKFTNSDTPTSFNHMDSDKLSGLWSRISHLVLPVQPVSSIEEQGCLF
UniProt Q8N4Q0: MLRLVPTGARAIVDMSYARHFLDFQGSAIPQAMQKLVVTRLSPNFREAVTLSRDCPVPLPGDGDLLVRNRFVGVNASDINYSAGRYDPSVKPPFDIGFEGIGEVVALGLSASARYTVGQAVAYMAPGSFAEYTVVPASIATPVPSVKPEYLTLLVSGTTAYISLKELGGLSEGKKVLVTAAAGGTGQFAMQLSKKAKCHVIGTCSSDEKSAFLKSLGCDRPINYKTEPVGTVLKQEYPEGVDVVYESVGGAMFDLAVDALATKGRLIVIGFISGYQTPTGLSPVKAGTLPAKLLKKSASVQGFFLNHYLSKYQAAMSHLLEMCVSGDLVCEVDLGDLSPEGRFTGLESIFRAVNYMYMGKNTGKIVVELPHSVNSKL
UniProt Q8N8R7: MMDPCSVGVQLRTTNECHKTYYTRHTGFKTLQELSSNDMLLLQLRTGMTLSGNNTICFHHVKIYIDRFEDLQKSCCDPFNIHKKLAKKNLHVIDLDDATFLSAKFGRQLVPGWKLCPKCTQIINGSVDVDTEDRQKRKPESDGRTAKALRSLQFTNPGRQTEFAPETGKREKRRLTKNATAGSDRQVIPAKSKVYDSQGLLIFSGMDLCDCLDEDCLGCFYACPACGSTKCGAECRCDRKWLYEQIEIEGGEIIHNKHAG
UniProt Q8N490: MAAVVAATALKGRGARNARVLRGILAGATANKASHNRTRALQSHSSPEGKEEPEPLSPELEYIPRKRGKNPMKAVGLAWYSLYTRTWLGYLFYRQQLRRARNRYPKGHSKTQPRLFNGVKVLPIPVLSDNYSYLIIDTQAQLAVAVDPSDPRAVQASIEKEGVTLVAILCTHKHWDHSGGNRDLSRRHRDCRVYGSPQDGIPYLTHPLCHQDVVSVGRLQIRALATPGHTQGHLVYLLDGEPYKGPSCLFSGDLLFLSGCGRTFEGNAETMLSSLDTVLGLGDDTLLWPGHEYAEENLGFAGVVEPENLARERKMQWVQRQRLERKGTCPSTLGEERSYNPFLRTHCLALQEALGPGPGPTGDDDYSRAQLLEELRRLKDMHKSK

Compound: Nc1ncnc2c1ncn2[C@@H]1O[C@H](COP(=O)(O)OP(=O)(O)OP(=O)(O)O)[C@@H](O)[C@H]1O [adenosine triphosphate]
Assay: NP40-soluble protein abundance relative to vehicle (solubility fold change) (ratio); higher = more soluble protein in presence of ATP
In short: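 Crude Jurkat lysate, prepared by Dounce homogenisation, was exposed to eight concentrations from 0.1 to 10 mM for 10 min at room temperature and then 3 min at 37 °C. Solubilisation used 0.8% NP40 with benzonase for 60 min at 4 °C, followed by ultracentrifugation and TMT labelling of the supernatant for LC-MS/MS. After vsn normalisation of intensities, each value is the fold change against the detergent-processed vehicle within each replicate, across three independent experiments.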

Target	NP40-soluble protein abundance (concentration: 1mM)	NP40-soluble protein abundance (concentration: 2mM)	NP40-soluble protein abundance (concentration: 4mM)	NP40-soluble protein abundance (concentration: 6mM)	NP40-soluble protein abundance (concentration: 8mM)	NP40-soluble protein abundance (concentration: 10mM)
SLC15A4 (UniProt Q8N697)	0.935 ± 0.084	0.97 ± 0.16	0.938 ± 0.1	0.971 ± 0.11	0.934 ± 0.082	0.94 ± 0.067
EXOC8 (UniProt Q8IYI6)	1.01 ± 0.018	0.995 ± 0.021	0.98505 ± 0.00046	0.996 ± 0.027	0.981 ± 0.018	0.982 ± 0.014
NUBPL (UniProt Q8TB37)	1.08 ± 0.017	1.06 ± 0.012	1.11 ± 0.051	1.09 ± 0.062	1.09 ± 0.11	0.9908 ± 0.0055
UniProt Q8NA72 and related entries	1.01 ± 0.075	1.01 ± 0.044	1.04 ± 0.098	1.01 ± 0.15	1.11 ± 0.07	1.03 ± 0.11
TTL (UniProt Q8NG68)	1.07 ± 0.09	1 ± 0.071	1.13 ± 0.019	0.991 ± 0.092	1.07 ± 0.017	0.998 ± 0.054
UniProt Q8IZC7 and related entries	0.981 ± 0.18	0.991 ± 0.21	0.858 ± 0.27	0.862 ± 0.24	0.895 ± 0.13	0.856 ± 0.17
RYBP (UniProt Q8N488)	1.03 ± 0.094	1.03 ± 0.052	1.05 ± 0.061	1.081 ± 0.0025	0.985 ± 0.027	1.01 ± 0.057
FBXO22 (UniProt Q8NEZ5)	1.11 ± 0.15	1.07 ± 0.12	1.08 ± 0.077	0.981 ± 0.19	1.08 ± 0.086	1.01 ± 0.063
RNF214 (UniProt Q8ND24)	0.952 ± 0.036	0.952 ± 0.015	0.953 ± 0.011	0.97 ± 0.017	0.931 ± 0.01	0.926 ± 0.02
RNF169 (UniProt Q8NCN4)	1.17 ± 0.12	1.24 ± 0.15	1.27 ± 0.16	1.41 ± 0.18	1.37 ± 0.22	1.44 ± 0.19
LRRC8A (UniProt Q8IWT6)	0.973 ± 0.026	0.961 ± 0.026	1.05 ± 0.074	1.03 ± 0.09	1.08 ± 0.013	1.1 ± 0.077
SMYD4 (UniProt Q8IYR2)	0.971 ± 0.042	1.02 ± 0.026	1.01 ± 0.039	1.05 ± 0.066	0.964 ± 0.011	0.957 ± 0.044
PRPF38A (UniProt Q8NAV1)	1.11 ± 0.046	1.17 ± 0.036	1.07 ± 0.044	1.01 ± 0.098	0.991 ± 0.061	1.13 ± 0.041
UniProt Q8IZE3-2	1 ± 0.019	0.951 ± 0.011	1.03 ± 0.069	1.01 ± 0.14	1.09 ± 0.13	0.989 ± 0.041
UniProt Q8N1K5 and related entries	1.05 ± 0.13	0.999 ± 0.12	0.986 ± 0.11	0.942 ± 0.13	1.02 ± 0.073	0.986 ± 0.082
CLIP4 (UniProt Q8N3C7)	1.19 ± 0.031	1.22 ± 0.14	1.35 ± 0.12	1.27 ± 0.091	1.31 ± 0.13	1.32 ± 0.14
UniProt Q8NCR0 and related entries	1.1 ± 0.038	1.09 ± 0.06	1.105 ± 0.0034	1.06 ± 0.13	1.11 ± 0.07	1.08 ± 0.095
GALNT12 (UniProt Q8IXK2)	1.11 ± 0.084	1.05 ± 0.045	1.07 ± 0.074	1.02 ± 0.098	1.09 ± 0.054	1.04 ± 0.065
UniProt Q8NDX5 and related entries	0.983 ± 0.11	1.06 ± 0.081	0.943 ± 0.095	1.08 ± 0.18	1.04 ± 0.12	1.12 ± 0.059
PAF1 (UniProt Q8N7H5)	1.01 ± 0.035	0.992 ± 0.036	0.957 ± 0.014	0.956 ± 0.039	0.84 ± 0.04	0.742 ± 0.044
THNSL1 (UniProt Q8IYQ7)	1.01 ± 0.064	1.01 ± 0.058	0.992 ± 0.067	0.981 ± 0.1	0.988 ± 0.07	0.994 ± 0.028
UniProt Q8N5Y2 and related entries	1.34 ± 0.12	1.38 ± 0.19	1.49 ± 0.15	1.64 ± 0.33	1.52 ± 0.19	1.56 ± 0.2
UniProt Q8N5Z0 and related entries	1.15 ± 0.28	1.06 ± 0.2	1.02 ± 0.076	0.978 ± 0.14	0.971 ± 0.11	1.02 ± 0.098
TOR1AIP2 (UniProt Q8NFQ8)	0.929 ± 0.051	0.967 ± 0.026	0.925 ± 0.035	0.933 ± 0.077	0.9 ± 0.012	0.869 ± 0.041
UniProt Q8NDI1-2|Q8NDI1-3|Q8NDI1	0.969 ± 0.015	0.951 ± 0.032	0.911 ± 0.041	0.964 ± 0.033	0.91 ± 0.056	0.914 ± 0.065
UniProt Q8N6T7 and related entries	0.974 ± 0.053	0.954 ± 0.044	0.992 ± 0.047	0.976 ± 0.09	1.02 ± 0.066	0.98 ± 0.056
ZADH2 (UniProt Q8N4Q0)	0.997 ± 0.026	0.994 ± 0.028	0.964 ± 0.026	0.959 ± 0.065	0.939 ± 0.017	0.965 ± 0.038
UniProt Q8N8R7	0.981 ± 0.046	0.992 ± 0.031	0.94 ± 0.033	0.962 ± 0.031	0.962 ± 0.04	0.899 ± 0.065
UniProt Q8N490 and related entries	0.949 ± 0.044	0.982 ± 0.1	0.962 ± 0.098	0.998 ± 0.077	0.988 ± 0.12	1.01 ± 0.17
ANKRD52 (UniProt Q8NB46)	1.04 ± 0.11	0.963 ± 0.079	1.02 ± 0.032	0.948 ± 0.049	1.02 ± 0.1	1 ± 0.074

Single entries from the entries so far:
ANKRD52 (UniProt Q8NB46) – NP40-soluble protein abundance (concentration: 10mM): 1 ± 0.074
FBXO22 (UniProt Q8NEZ5) – NP40-soluble protein abundance (concentration: 2mM): 1.07 ± 0.12
